# Experimental data from PubChem BioAssay AID1487 (National Center for Advancing Translational Sciences (NCATS), 2009).
# This is one part of the list. Further columns of the screen follow, without active or inactive calls. Compounds called inactive in the main read-out are mostly missing here. Potencies come from curve fits of mixed quality, noted in brackets.
# Assay: qHTS Assay for Modulators of Lamin A Splicing
# Details: HeLa LMNA splicing GFP/RFP minigene ratio, 48 h
# Outline: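 S3 HeLa stable clones carrying a lamin A-EGFP splicing minigene plus DsRed2 were seeded at 600 cells/well in Opti-MEM with 2% FBS, pin-dosed and incubated 48 h at 37°C. Acumen cytometry (488 nm) gave the GFP/RFP total-intensity ratio.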
# [1] = measured here: GFP splicing reporter channel
# [2] = measured here: RFP viability control channel
Compound,AC50 [1],AC50 [2]
CC(Sc1nc2cc(Cl)ccc2s1)C(=O)Nc1cccc(S(=O)(=O)N2CCOCC2)c1 (stereo unspecified),"20 µM [rising, single point]",–
COc1ccc(C2c3c(ncn(Cc4ccco4)c3=N)Oc3ccc4ccccc4c32)cc1 (stereo unspecified),–,"35.5 µM [rising, single point]"
CC(C)C(=O)NCCc1nc2ccccc2n1CCc1ccccc1,"25.1 µM [falling, partial curve, poor fit]",–
CCOC(=O)c1noc2ncn(CC(=O)Nc3ccc(F)cc3Cl)c(=O)c12,"1 µM [falling, full curve, poor fit]",–
Cc1cccc(OCCn2cc(/C=N/NC(=O)c3ccncc3)c3ccccc32)c1,"22.4 µM [rising, single point]","31.6 µM [rising, single point]"
CCN(CC)S(=O)(=O)c1cccc(C(=O)c2c(C)cc3ccccn23)c1,"5.62 µM [rising, full curve, poor fit]","11.2 µM [rising, partial curve]"
Cc1oc(-c2cccc(Cl)c2)nc1CSc1nc2c(c(=O)[nH]1)CCC2,"0.0251 µM [falling, full curve, poor fit]","0.0251 µM [falling, full curve]"
CCn1ncc(Br)c1C(=O)Nc1cc(C)cc(C)c1,"8.91 µM [rising, single point]",–
O=C(c1cccc(COCC(F)(F)C(F)F)c1)N1CCN(c2ccccc2)CC1,"11.2 µM [rising, partial curve, poor fit]","22.4 µM [rising, single point]"
CCOC(=O)c1cnc(SCC(=O)Nc2ccc3c(c2)OCCO3)nc1N,–,"35.5 µM [rising, single point]"
COc1ccc(Nc2ncnc3c2cnn3Cc2ccccc2)cc1,–,"31.6 µM [rising, single point]"
CCOC(=O)Cc1csc(NS(=O)(=O)c2ccc3c4c(cccc24)C(=O)N3CC)n1,–,"11.2 µM [rising, partial curve]"
Cc1ccccc1NC(=O)/C=C/c1ccc([N+](=O)[O-])s1,"8.91 µM [falling, partial curve]","6.31 µM [falling, full curve]"
COc1cccc(/C=C(/C(=O)OCC(=O)NC2CCCCCCC2)c2ccccc2)c1,–,"22.4 µM [rising, single point]"
Cc1ccc(Sc2ccc(C(=O)N(C)C)cc2[N+](=O)[O-])cc1,"3.98 µM [falling, partial curve, poor fit]","14.1 µM [falling, single point]"
Fc1ccccc1OCCSc1nnnn1-c1ccccc1,–,"31.6 µM [rising, single point]"
O=C1CC(c2ccc(OCCCCCOc3ccc(C4CC(=O)NC4=O)cc3)cc2)C(=O)N1 (stereo unspecified),"35.5 µM [rising, single point]","28.2 µM [rising, single point]"
Nc1cc(Cl)ccc1Oc1ccc2ccccc2c1,–,"12.6 µM [rising, single point]"
Cc1ccc(CNC(=O)Cc2ccc(-c3ccccc3)cc2)cc1,"5.01 µM [falling, full curve, poor fit]",–

Compound,AC50 [1],AC50 [2]
Cc1ccc(NC(=O)COC(=O)CN2C(=O)c3ccccc3C2=O)cc1S(=O)(=O)N(C)C,"5.62 µM [rising, partial curve]",–
CN1/C(=C\C=O)C(C)(C)c2ccccc21,"1.58 µM [falling, partial curve]","0.251 µM [falling, full curve]"
N#Cc1c(C(F)(F)F)cc(-c2ccc(F)cc2)nc1SCC(=O)O,"0.282 µM [falling, full curve, poor fit]","17.8 µM [falling, partial curve, poor fit]"
C[C@H]1Cc2c(COc3ccccc3)nc3c(c2CO1)CN(C(=O)Nc1cccc(C#N)c1)CC3,–,"0.000891 µM [falling, full curve, poor fit]"
CCc1c(C)sc(NC(=S)Nc2cccnc2)c1C(=O)OC,–,"14.1 µM [rising, single point]"
CC1(C)CC(NC(=O)COc2ccccc2Cl)CC(C)(C)N1,"0.00794 µM [rising, full curve, poor fit]",–
CCOc1ccccc1CNC(=O)Cn1c(=O)c2cccn2c2ccc(F)cc21,–,"17.8 µM [rising, single point]"
O=C(CSc1nc(Cc2ccccc2)nc2ccccc12)c1ccc2c(c1)OCCO2,–,"14.1 µM [rising, partial curve]"
CCCCCC/C(=N/O)c1ccccn1,"2.82 µM [rising, full curve]","11.2 µM [rising, partial curve]"
Cc1nn(-c2ccccc2)c2c1C(O)n1c(nc3ccccc31)S2 (stereo unspecified),–,"35.5 µM [rising, single point]"
Cc1ccc(-n2cc3c(-c4cccc(Br)c4)nnc(C)c3n2)cc1,"20 µM [rising, partial curve, poor fit]","14.1 µM [rising, partial curve]"
CCN(CC)S(=O)(=O)c1ccc(/C(O)=C(\C#N)c2nc3ccccc3n2C)cc1,–,"14.1 µM [rising, partial curve, poor fit]"
Cc1cc(OC(C)C(=O)N2CCN(CCc3ccccn3)CC2)ccc1Cl (stereo unspecified),–,"0.02 µM [falling, full curve, poor fit]"
Cc1oc(-c2ccc(Cl)cc2)nc1CN1CCC(C(=O)N2CCN(Cc3ccccc3)CC2)CC1,"35.5 µM [rising, single point]","35.5 µM [rising, single point]"
CCOc1ccccc1C(N)=O,"12.6 µM [falling, single point]",–
CC(C)N(Cc1ccccc1)C(=O)c1cc2ccc3cccnc3c2[nH]1,"17.8 µM [falling, partial curve, poor fit]",–
Oc1ccc(Nc2nc(-c3ccc(O)cc3)cs2)cc1,–,"7.94 µM [rising, partial curve]"
COc1cccc(C(c2sc3nc(-c4ccco4)nn3c2O)N2CCCC2)c1 (stereo unspecified),"0.0158 µM [falling, full curve, poor fit]","0.0126 µM [falling, full curve, poor fit]"
COCCCn1c(SCC(=O)NCc2ccco2)nc2sc3c(c2c1=O)CCC3,–,"35.5 µM [rising, single point]"

# Retrieved one by one from the entries so far (4):
Compound,AC50 [1],AC50 [2]
CCCCCC/C(=N/O)c1ccccn1,"2.82 µM [rising, full curve]","11.2 µM [rising, partial curve]"
CCN(CC)S(=O)(=O)c1ccc(/C(O)=C(\C#N)c2nc3ccccc3n2C)cc1,–,"14.1 µM [rising, partial curve, poor fit]"
CC(C)N(Cc1ccccc1)C(=O)c1cc2ccc3cccnc3c2[nH]1,"17.8 µM [falling, partial curve, poor fit]",–
CCOc1ccccc1C(N)=O,"12.6 µM [falling, single point]",–

# Further structures.

Compound,AC50 [1],AC50 [2]
C=CCc1cc(C(=O)N2CCCCC2)ccc1O,–,"35.5 µM [rising, single point]"
CCOc1ccc(/C=N/NC(=S)Nc2c(C)cccc2C)cc1,–,"14.1 µM [rising, single point]"
COc1cccc(C2=NOC(C(=O)NCc3ccco3)C2)c1 (stereo unspecified),"35.5 µM [falling, single point]","35.5 µM [falling, single point]"
COc1ccc(NC(=O)c2c(NCc3cccs3)sc3c2CCCCC3)cc1,–,"12.6 µM [rising, partial curve]"
Cc1ccc2c(c1)nnn2C1CCN(C(=O)c2cccs2)CC1,"11.2 µM [rising, partial curve, poor fit]","11.2 µM [rising, partial curve, poor fit]"
CC(C)Oc1cccc(C(=O)NC(=S)NCc2cccnc2)c1,–,"15.8 µM [rising, partial curve, poor fit]"
O=C(c1ccccc1Br)N1CCC(c2nc3ccccc3s2)CC1,"31.6 µM [falling, single point]","35.5 µM [falling, single point]"
O=C(/C=C/c1ccc(Cl)cc1Cl)Nc1ccncc1,–,"14.1 µM [rising, partial curve]"
COc1cccc(OCCNc2cc(N3CCOCC3)ccc2[N+](=O)[O-])c1,–,"14.1 µM [rising, partial curve]"
COC(=O)c1cc(N2CCN(C)CC2)nc2ccccc12,"0.0158 µM [falling, full curve, poor fit]",–
CN(c1cccc(Cl)c1)S(=O)(=O)c1cccc(C(=O)Nc2ccc3c(c2)CCC3)c1,"12.6 µM [rising, single point]","12.6 µM [rising, partial curve]"
Cc1ccc(N2C(=O)/C(=C/c3cccnc3)SC2=S)cc1,–,"7.94 µM [rising, full curve, poor fit]"
O=C(C1CC1)N1N=C2CCCCC2C1(O)C(F)(F)F (stereo unspecified),"0.00316 µM [rising, full curve, poor fit]",–
O=C(Nc1cc(SCCO)cc([N+](=O)[O-])c1)c1ccc(Br)o1,"14.1 µM [rising, partial curve]","15.8 µM [rising, partial curve]"
N#Cc1nc(Cc2ccccc2)oc1NCc1ccccc1,–,"35.5 µM [rising, single point]"
COc1ccccc1NS(=O)(=O)c1ccc(Br)s1,–,"35.5 µM [falling, single point]"
Cc1ccc(C(=O)C[n+]2ccc(Cc3ccccc3)cc2)cc1,–,"0.0708 µM [falling, full curve, poor fit]"
O=C(CNc1cccc(Cl)c1)c1ccc(Cl)cc1,"31.6 µM [falling, single point]","25.1 µM [falling, partial curve]"
CC(C)[C@H](NC(=O)c1ccccc1)C(=O)OCc1nc2scc(-c3ccccc3)c2c(=O)[nH]1,–,"12.6 µM [rising, single point]"
